± gives the standard deviation of the averaged measurements. Only a part is listed here, and it is no random draw. Most entries show no effect beyond the scatter of the controls.
Compound: Nc1ncnc2c1ncn2[C@@H]1O[C@H](COP(=O)(O)OP(=O)(O)NP(=O)(O)O)[C@@H](O)[C@H]1O [adenylyl imidodiphosphate]
Experiment: NP40-soluble protein abundance relative to vehicle (solubility fold change) (ratio); higher = more soluble protein in presence of AMP-PNP
How it was run: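 Crude Jurkat lysate, prepared by Dounce homogenisation, was exposed to eight concentrations from 0.1 to 10 mM for 10 min at room temperature and then 3 min at 37 °C. Solubilisation used 0.8% NP40 with benzonase for 60 min at 4 °C, followed by ultracentrifugation and TMT labelling of the supernatant for LC-MS/MS. After vsn normalisation of intensities, each value is the fold change against the detergent-processed vehicle within each replicate, across three independent experiments.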

The chains behind the UniProt entries cited, without tags or fusion partners. Where a name states a change or a piece, a line headed by the entry shows the natural chain unless it says otherwise.
UniProt P30419: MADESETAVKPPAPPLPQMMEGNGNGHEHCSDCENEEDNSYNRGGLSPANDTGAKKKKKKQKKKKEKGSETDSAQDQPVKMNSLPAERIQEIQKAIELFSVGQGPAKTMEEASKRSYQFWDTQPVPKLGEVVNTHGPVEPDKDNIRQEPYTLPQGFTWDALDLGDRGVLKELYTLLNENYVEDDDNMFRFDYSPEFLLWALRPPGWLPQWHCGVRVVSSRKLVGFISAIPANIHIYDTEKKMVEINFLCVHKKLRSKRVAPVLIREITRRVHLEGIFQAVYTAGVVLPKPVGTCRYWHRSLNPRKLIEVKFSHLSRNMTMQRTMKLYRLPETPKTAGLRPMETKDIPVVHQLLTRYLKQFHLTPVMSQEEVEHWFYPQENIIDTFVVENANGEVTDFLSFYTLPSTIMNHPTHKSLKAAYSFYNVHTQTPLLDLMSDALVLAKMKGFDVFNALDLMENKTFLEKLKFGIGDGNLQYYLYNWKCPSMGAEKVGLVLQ
UniProt P19634, whole entry: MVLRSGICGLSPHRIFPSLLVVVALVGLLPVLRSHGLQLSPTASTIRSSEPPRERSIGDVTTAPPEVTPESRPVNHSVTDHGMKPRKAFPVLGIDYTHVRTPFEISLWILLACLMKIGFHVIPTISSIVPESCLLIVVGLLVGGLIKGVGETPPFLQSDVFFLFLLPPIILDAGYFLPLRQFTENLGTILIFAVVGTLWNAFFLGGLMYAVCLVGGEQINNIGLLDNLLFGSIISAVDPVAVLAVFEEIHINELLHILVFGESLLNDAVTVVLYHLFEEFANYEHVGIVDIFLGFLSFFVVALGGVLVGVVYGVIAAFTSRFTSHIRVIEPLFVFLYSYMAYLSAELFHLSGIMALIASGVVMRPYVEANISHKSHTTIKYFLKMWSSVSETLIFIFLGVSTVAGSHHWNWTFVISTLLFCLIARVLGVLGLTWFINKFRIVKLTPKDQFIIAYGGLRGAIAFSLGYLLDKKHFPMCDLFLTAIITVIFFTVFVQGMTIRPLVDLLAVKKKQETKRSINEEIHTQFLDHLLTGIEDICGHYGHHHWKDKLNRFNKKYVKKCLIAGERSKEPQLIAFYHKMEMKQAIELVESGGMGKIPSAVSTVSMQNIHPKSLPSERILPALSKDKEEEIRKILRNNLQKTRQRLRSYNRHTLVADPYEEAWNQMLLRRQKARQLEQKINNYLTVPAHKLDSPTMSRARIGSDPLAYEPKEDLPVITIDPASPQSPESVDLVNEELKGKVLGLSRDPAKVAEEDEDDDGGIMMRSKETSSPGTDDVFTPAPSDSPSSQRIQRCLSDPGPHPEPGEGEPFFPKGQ
UniProt P38159: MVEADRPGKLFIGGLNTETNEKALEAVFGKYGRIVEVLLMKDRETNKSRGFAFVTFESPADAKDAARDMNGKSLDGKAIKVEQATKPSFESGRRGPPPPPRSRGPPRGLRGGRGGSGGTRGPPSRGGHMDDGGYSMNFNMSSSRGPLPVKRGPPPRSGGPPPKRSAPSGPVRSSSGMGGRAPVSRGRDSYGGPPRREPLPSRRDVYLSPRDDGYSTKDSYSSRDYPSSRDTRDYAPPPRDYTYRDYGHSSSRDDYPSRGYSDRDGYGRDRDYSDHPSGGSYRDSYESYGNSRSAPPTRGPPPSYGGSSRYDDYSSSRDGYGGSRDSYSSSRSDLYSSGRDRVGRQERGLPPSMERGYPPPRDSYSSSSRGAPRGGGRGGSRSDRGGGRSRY
UniProt P25789: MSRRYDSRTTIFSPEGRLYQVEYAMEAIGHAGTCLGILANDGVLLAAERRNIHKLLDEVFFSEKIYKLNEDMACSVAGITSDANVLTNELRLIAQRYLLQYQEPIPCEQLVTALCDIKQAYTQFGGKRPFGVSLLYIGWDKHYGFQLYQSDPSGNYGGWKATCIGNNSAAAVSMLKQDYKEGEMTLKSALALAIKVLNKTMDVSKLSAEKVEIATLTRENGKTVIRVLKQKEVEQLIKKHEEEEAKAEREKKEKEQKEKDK
UniProt P32455: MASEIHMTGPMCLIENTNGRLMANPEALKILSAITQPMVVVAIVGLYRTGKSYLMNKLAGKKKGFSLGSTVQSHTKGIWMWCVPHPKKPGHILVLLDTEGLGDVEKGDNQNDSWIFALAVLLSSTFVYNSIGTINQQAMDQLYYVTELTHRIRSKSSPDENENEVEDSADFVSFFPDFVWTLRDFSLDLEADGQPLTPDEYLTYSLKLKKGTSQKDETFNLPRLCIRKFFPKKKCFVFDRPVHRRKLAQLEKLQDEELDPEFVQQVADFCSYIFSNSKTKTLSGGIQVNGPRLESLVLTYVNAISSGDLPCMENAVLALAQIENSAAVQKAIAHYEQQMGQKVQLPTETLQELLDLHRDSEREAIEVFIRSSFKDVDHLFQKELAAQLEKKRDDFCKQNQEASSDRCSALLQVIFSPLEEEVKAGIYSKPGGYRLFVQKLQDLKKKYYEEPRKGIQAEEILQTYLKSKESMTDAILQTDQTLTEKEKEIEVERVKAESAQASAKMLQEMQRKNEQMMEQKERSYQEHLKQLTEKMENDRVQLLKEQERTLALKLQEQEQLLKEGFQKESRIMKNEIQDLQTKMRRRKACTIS
UniProt P33240: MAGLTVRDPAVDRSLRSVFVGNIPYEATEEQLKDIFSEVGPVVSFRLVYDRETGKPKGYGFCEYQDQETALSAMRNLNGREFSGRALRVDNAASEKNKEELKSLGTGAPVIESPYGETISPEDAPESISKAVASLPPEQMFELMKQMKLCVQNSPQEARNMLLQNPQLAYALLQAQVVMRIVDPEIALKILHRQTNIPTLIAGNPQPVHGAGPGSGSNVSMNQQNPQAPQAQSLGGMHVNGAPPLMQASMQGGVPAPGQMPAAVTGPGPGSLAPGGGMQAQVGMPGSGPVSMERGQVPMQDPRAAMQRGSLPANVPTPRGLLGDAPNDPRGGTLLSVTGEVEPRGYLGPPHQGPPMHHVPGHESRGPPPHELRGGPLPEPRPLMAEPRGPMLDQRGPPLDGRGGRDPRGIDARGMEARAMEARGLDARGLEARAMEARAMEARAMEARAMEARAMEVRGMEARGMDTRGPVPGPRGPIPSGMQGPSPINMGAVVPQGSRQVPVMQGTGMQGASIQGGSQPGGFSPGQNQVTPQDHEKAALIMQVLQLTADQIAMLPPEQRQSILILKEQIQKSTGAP
UniProt P31749: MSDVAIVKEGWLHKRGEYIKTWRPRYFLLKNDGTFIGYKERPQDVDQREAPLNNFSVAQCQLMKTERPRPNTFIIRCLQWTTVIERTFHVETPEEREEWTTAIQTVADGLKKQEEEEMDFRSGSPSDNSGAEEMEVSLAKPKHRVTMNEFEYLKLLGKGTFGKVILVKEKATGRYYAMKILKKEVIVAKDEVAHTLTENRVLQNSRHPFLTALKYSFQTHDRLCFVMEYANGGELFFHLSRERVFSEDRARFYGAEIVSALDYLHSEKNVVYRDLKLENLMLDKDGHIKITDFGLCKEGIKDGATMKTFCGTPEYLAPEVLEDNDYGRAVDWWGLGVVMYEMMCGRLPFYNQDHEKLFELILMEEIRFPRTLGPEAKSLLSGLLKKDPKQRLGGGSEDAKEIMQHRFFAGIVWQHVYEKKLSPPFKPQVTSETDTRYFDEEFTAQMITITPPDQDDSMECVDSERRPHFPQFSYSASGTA
UniProt P17900: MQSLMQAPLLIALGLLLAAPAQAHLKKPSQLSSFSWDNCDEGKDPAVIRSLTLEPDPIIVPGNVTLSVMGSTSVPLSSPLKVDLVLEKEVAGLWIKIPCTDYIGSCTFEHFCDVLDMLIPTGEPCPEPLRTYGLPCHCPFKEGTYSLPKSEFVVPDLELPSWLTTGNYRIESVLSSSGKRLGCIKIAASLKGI
UniProt P31323, whole entry: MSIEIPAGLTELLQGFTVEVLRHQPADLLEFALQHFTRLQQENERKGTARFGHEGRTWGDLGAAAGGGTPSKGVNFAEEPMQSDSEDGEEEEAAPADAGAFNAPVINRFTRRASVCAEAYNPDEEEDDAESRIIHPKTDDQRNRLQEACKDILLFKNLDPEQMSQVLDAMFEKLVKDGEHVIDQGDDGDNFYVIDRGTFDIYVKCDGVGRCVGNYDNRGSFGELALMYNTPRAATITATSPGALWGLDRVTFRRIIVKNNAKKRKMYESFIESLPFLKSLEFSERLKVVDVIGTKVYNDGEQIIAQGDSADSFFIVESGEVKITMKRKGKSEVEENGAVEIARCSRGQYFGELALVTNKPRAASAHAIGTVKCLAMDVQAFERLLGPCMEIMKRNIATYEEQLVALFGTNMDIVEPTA
UniProt P22059, whole entry: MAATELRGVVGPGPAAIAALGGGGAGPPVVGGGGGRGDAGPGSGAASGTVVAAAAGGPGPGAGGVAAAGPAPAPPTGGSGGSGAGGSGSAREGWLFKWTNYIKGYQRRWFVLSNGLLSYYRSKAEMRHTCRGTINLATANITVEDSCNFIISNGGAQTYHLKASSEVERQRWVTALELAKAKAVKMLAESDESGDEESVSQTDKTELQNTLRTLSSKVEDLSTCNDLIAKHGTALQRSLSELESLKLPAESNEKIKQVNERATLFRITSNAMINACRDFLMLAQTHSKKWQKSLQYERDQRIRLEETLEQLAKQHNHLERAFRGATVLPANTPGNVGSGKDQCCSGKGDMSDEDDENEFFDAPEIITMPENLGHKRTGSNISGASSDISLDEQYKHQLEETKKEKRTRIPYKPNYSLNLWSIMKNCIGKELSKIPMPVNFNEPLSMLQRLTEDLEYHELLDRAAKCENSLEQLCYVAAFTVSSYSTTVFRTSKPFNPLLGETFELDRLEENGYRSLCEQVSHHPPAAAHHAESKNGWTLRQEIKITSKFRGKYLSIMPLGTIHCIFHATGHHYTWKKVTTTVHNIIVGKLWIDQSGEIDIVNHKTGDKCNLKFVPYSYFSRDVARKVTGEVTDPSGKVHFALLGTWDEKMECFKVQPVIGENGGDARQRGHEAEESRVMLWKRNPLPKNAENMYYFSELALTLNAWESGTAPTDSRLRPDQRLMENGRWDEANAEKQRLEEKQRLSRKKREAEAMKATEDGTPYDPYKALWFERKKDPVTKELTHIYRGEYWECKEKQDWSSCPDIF
UniProt P34896: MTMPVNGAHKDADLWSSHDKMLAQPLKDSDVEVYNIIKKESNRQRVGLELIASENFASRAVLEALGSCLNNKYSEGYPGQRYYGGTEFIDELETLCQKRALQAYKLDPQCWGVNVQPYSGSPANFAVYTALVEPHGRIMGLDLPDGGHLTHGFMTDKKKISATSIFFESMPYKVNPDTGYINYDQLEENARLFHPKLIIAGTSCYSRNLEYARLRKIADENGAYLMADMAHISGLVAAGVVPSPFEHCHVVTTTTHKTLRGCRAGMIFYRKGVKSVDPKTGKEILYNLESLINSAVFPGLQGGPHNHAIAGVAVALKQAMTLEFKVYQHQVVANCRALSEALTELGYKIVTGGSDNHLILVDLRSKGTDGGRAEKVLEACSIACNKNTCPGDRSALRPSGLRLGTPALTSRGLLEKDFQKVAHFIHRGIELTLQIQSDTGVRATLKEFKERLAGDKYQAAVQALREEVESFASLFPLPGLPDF
UniProt P27824: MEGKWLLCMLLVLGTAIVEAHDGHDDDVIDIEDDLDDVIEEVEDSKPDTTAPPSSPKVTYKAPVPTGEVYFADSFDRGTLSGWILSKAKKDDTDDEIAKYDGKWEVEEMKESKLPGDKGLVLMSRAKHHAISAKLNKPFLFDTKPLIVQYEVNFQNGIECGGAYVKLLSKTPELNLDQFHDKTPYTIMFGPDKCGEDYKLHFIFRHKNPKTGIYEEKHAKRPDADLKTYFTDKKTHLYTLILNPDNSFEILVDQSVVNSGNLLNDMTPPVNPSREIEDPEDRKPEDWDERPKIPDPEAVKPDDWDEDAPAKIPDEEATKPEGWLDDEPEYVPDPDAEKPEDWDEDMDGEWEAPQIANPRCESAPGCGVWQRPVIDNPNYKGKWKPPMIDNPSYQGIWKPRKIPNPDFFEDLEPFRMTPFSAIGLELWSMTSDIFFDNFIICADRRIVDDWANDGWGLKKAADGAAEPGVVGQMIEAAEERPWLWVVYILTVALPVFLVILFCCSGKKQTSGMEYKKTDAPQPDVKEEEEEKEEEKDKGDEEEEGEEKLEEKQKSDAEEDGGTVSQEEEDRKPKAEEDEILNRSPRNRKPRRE
UniProt P17026: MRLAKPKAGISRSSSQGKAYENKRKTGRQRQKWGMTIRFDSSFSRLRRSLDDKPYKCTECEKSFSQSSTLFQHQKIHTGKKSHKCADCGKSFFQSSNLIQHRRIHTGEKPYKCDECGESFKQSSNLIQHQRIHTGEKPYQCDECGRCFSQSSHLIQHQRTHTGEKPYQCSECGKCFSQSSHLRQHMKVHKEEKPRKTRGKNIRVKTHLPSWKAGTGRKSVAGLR
UniProt P30085: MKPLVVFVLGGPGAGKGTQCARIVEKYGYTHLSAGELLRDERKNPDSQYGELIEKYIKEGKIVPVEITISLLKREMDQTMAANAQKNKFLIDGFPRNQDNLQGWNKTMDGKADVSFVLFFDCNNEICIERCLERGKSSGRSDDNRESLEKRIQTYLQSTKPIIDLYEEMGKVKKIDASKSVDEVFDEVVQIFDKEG

Row | Target | NP40-soluble protein abundance (concentration: 0.1mM) | NP40-soluble protein abundance (concentration: 0.5mM)
1 | UniProt P29016 | 1.02 ± 0.035 | 0.998 ± 0.056
2 | UniProt P23771 and related entries | 0.988 ± 0.011 | 0.981 ± 0.029
3 | MAT2A (UniProt P31153) | 1 ± 0.043 | 1.02 ± 0.03
4 | NMT1 (UniProt P30419) | 1.06 ± 0.038 | 1.03 ± 0.057
5 | UniProt P28908 and related entries | 0.9948 ± 0.0033 | 1.007 ± 0.0099
6 | UniProt P36402-5 | 0.9808 ± 0.008 | 0.981 ± 0.016
7 | UniProt P28838 and related entries | 0.98 ± 0.012 | 0.976 ± 0.017
8 | SLC9A1 (UniProt P19634) | 0.964 ± 0.036 | 0.964 ± 0.043
9 | UniProt P23443 and related entries | 0.968 ± 0.021 | 1.01 ± 0.036
10 | UniProt P28065 and related entries | 0.995 ± 0.048 | 0.964 ± 0.012
11 | GDI1 (UniProt P31150) | 1.02 ± 0.02 | 0.987 ± 0.07
12 | GSTM2 (UniProt P28161) | 1.01 ± 0.058 | 0.979 ± 0.076
13 | BCKDHB (UniProt P21953) | 1.02 ± 0.019 | 0.99 ± 0.087
14 | UniProt P38159 and related entries | 1.03 ± 0.059 | 1.1 ± 0.089
15 | PSMA4 (UniProt P25789) | 1 ± 0.036 | 1.01 ± 0.042
16 | GOT1 (UniProt P17174) | 1.007 ± 0.009 | 0.997 ± 0.023
17 | UniProt P19784 | 1.06 ± 0.039 | 1.01 ± 0.13
18 | UniProt P17612 | 0.988 ± 0.13 | 0.935 ± 0.1
19 | GBP1 (UniProt P32455) | 0.979 ± 0.035 | 1.01 ± 0.063
20 | EEF1B2 (UniProt P24534) | 1.09 ± 0.15 | 0.901 ± 0.17
21 | PSMB6 (UniProt P28072) | 0.978 ± 0.0098 | 0.976 ± 0.042

Complete entries from above. Order of values: NP40-soluble protein abundance (concentration: 0.1mM)	NP40-soluble protein abundance (concentration: 0.5mM)
GSTM2 (UniProt P28161) as listed: 1.01 ± 0.058	0.979 ± 0.076
GDI1 (UniProt P31150) as listed: 1.02 ± 0.02	0.987 ± 0.07

(continued)

Row | Target | NP40-soluble protein abundance (concentration: 0.1mM) | NP40-soluble protein abundance (concentration: 0.5mM)
22 | UniProt P35626 | 1.03 ± 0.026 | 1.006 ± 0.0083
23 | ATP6V1A (UniProt P38606) | 1.018 ± 0.0053 | 1 ± 0.047
24 | UniProt P33240 and related entries | 0.9953 ± 0.006 | 0.992 ± 0.051
25 | UniProt P20020 and related entries | 1.04 ± 0.043 | 0.985 ± 0.026
26 | ARL3 (UniProt P36405) | 1.02 ± 0.053 | 0.984 ± 0.089
27 | UniProt P37837 and related entries | 1 ± 0.032 | 1.01 ± 0.057
28 | UniProt P38117 and related entries | 0.976 ± 0.034 | 0.979 ± 0.027
29 | RFC2 (UniProt P35250) | 1.04 ± 0.067 | 1.05 ± 0.024
30 | GTF2E2 (UniProt P29084) | 0.993 ± 0.041 | 1.03 ± 0.089
31 | UniProt P22307 and related entries | 0.994 ± 0.026 | 1.03 ± 0.045
32 | UniProt P30281 and related entries | 1.04 ± 0.015 | 0.9985 ± 0.006
33 | PRDX6 (UniProt P30041) | 1 ± 0.022 | 0.969 ± 0.074
34 | AKT1 (UniProt P31749) | 0.979 ± 0.038 | 0.959 ± 0.019
35 | FBL (UniProt P22087) | 0.994 ± 0.039 | 1.01 ± 0.068
36 | DLST (UniProt P36957) | 1.08 ± 0.1 | 1.06 ± 0.081
37 | PTPN1 (UniProt P18031) | 0.978 ± 0.029 | 0.987 ± 0.029
38 | UniProt P30154 and related entries | 0.96 ± 0.032 | 0.978 ± 0.026
39 | RAB3B (UniProt P20337) | 0.9909 ± 0.0063 | 0.964 ± 0.017
40 | GM2A (UniProt P17900) | 1 ± 0.025 | 0.991 ± 0.018
41 | CORO1A (UniProt P31146) | 1.06 ± 0.057 | 1.05 ± 0.044
42 | UniProt P19793-2 | 0.992 ± 0.024 | 1.01 ± 0.028

Row | Target | NP40-soluble protein abundance (concentration: 0.1mM) | NP40-soluble protein abundance (concentration: 0.5mM)
43 | TCEA1 (UniProt P23193) | 0.995 ± 0.0029 | 1.02 ± 0.032
44 | PRKAR2B (UniProt P31323) | 1.03 ± 0.054 | 1.03 ± 0.028
45 | OSBP (UniProt P22059) | 0.971 ± 0.026 | 0.951 ± 0.026
46 | UniProt P34896 and related entries | 1.03 ± 0.025 | 1 ± 0.065
47 | UniProt P27824 and related entries | 0.986 ± 0.0091 | 1.01 ± 0.013
48 | GGT1 (UniProt P19440) | 0.955 ± 0.021 | 1 ± 0.014
49 | IGHMBP2 (UniProt P38935) | 1.11 ± 0.05 | 1.15 ± 0.032
50 | LMNB1 (UniProt P20700) | 0.962 ± 0.019 | 0.959 ± 0.061
51 | ACO1 (UniProt P21399) | 0.991 ± 0.014 | 0.992 ± 0.025
52 | UniProt P25788 and related entries | 0.986 ± 0.011 | 0.985 ± 0.022
53 | UniProt P29144 and related entries | 1.04 ± 0.045 | 0.989 ± 0.044
54 | UniProt P25098 | 1 ± 0.015 | 1.03 ± 0.011
55 | RPL4 (UniProt P36578) | 1.07 ± 0.023 | 1.05 ± 0.058
56 | UniProt P23634 and related entries | 1 ± 0.041 | 0.986 ± 0.05
57 | UniProt P33981 and related entries | 1.01 ± 0.042 | 1.03 ± 0.034
58 | RPL7 (UniProt P18124) | 0.963 ± 0.06 | 0.958 ± 0.059
59 | VARS (UniProt P26640) | 1.02 ± 0.014 | 0.99 ± 0.02
60 | ZNF22 (UniProt P17026) | 0.9665 ± 0.0054 | 0.982 ± 0.024
61 | CMPK1 (UniProt P30085) | 0.923 ± 0.063 | 1.02 ± 0.035
62 | UniProt P24666 and related entries | 1 ± 0.025 | 1.03 ± 0.032

From the supplement of paper PMC6411743
